The record followed here is the supplement of paper PMC6411743.

By UniProt entry, the sequences of proteins in these tests, tags left out. Where a name states a change or a piece, a line headed by the entry shows the natural chain unless it says otherwise.
UniProt Q9BQA1, whole entry: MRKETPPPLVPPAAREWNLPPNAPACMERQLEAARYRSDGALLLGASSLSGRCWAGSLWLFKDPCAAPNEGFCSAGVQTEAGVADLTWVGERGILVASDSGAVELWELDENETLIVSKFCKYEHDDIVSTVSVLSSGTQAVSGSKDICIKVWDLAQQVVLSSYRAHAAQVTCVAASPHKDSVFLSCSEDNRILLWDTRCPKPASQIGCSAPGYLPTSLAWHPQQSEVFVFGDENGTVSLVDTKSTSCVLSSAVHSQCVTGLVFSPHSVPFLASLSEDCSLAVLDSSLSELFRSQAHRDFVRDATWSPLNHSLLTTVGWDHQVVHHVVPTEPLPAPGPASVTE
UniProt Q99941: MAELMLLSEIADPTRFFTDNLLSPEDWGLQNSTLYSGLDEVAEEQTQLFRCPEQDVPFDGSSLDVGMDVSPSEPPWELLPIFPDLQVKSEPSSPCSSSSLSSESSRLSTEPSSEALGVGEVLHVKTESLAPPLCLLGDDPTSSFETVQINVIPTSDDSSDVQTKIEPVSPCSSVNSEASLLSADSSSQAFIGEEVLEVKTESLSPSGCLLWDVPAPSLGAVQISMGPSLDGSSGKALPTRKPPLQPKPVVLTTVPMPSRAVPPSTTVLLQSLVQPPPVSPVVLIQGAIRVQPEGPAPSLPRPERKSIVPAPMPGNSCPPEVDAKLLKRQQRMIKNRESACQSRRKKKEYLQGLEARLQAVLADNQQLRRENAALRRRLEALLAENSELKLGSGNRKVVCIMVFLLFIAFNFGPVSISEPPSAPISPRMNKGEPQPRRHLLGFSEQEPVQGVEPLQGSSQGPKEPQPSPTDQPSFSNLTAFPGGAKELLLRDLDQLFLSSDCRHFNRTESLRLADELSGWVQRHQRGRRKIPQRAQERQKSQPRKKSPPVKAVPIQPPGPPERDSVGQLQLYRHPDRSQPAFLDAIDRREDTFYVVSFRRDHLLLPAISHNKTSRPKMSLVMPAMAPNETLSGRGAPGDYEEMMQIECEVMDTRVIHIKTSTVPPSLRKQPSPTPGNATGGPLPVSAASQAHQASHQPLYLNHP
UniProt Q9BSR8: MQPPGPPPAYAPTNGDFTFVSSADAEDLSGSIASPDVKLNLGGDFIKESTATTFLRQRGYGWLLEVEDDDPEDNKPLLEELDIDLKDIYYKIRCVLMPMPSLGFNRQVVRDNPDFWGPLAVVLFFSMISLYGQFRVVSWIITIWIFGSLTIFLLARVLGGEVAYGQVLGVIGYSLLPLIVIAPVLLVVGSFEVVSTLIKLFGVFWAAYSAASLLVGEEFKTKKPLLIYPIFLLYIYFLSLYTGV
UniProt Q9BVC4, whole entry: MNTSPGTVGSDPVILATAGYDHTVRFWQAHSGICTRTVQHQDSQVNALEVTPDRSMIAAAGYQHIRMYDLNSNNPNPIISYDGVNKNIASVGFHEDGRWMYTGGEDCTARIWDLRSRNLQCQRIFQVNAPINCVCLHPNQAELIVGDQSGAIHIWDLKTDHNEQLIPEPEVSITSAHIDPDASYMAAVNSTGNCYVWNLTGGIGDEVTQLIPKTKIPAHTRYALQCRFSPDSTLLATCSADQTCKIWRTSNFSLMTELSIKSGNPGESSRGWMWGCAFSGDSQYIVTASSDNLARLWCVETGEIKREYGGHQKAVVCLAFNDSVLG
UniProt Q9BYV9: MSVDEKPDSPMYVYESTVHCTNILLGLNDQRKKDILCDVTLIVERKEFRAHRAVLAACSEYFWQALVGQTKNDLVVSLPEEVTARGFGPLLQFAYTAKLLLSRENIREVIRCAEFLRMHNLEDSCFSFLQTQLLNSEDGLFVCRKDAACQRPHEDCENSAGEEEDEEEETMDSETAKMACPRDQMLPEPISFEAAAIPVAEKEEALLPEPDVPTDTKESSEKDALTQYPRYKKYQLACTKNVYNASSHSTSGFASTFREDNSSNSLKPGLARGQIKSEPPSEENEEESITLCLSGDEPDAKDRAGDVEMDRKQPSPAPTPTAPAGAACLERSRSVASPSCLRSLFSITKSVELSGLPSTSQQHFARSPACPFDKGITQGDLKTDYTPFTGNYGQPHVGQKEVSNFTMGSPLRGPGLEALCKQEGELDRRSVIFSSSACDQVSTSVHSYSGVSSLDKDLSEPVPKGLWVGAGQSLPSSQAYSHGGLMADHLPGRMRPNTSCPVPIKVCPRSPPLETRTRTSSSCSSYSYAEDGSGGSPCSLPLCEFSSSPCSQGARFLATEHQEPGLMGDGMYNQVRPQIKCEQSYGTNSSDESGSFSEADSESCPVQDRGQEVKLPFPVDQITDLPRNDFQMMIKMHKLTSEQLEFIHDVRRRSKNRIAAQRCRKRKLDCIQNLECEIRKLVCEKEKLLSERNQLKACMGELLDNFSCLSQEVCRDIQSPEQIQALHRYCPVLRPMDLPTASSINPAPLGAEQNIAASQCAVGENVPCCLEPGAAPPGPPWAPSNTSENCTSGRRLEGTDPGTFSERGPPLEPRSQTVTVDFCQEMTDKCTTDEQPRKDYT
UniProt Q9BUR4: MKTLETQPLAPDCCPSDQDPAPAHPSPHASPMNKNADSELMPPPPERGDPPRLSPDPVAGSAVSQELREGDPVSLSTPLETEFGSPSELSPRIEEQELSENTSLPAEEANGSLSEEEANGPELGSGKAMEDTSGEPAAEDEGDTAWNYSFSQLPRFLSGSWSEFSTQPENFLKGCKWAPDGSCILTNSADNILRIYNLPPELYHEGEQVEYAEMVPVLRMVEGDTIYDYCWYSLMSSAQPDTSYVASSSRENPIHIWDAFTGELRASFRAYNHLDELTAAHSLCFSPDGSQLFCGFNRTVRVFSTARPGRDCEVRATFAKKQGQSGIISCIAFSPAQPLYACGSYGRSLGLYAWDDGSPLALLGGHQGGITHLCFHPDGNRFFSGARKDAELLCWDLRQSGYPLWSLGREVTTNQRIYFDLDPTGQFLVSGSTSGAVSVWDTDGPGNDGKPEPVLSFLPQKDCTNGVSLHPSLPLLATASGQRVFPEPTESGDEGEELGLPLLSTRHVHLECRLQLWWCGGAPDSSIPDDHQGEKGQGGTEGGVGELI
UniProt Q9BXW7: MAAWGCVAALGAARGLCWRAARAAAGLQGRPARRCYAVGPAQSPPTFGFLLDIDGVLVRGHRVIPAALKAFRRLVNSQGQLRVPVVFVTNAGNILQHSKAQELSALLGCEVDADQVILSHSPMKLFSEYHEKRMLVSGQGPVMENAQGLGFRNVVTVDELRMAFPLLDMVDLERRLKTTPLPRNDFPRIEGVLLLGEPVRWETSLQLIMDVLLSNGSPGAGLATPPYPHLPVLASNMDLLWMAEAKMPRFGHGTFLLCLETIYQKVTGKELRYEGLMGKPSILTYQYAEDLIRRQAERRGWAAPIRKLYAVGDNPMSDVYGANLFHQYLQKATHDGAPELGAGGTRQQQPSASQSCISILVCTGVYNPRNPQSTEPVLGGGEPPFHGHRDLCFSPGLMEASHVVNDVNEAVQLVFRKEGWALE
UniProt Q9BYG3: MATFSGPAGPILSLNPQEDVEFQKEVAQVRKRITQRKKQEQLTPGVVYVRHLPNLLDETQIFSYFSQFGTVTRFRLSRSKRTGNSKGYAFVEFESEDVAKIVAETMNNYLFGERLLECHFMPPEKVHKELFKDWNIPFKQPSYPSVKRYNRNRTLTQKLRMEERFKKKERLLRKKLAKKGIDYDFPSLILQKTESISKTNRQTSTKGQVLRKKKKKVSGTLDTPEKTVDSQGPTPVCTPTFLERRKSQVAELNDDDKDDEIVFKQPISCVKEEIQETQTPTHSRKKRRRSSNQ
UniProt Q9BQ67, whole entry: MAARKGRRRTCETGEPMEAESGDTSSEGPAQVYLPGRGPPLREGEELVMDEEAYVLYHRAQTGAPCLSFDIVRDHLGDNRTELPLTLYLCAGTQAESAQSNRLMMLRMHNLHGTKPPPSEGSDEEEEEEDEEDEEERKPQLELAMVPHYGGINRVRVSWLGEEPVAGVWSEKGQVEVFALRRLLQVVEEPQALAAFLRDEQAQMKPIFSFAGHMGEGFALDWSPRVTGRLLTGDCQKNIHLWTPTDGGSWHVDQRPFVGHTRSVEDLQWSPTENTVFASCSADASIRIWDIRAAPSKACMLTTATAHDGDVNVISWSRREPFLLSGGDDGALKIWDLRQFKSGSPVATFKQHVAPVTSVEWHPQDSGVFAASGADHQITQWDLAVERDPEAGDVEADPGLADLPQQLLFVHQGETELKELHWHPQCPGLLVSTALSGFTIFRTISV
UniProt Q9BW92: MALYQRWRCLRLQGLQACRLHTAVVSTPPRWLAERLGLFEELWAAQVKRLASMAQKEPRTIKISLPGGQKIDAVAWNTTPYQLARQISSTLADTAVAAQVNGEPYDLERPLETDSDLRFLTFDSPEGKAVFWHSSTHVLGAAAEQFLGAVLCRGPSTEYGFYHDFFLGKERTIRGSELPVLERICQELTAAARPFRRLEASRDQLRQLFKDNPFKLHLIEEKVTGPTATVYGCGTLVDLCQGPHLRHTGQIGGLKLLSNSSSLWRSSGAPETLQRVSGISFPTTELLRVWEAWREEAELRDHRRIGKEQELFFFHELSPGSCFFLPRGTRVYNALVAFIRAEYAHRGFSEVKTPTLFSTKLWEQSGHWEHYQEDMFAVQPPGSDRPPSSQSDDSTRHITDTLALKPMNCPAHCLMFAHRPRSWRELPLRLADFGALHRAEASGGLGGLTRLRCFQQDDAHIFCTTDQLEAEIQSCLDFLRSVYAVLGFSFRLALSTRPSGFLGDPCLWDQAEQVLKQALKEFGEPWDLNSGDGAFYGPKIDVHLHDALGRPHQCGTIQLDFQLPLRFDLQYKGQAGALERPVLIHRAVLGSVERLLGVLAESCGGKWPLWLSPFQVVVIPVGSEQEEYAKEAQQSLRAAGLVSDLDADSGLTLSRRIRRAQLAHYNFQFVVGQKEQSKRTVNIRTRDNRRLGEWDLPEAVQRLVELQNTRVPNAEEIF
UniProt Q9BPX5, whole entry: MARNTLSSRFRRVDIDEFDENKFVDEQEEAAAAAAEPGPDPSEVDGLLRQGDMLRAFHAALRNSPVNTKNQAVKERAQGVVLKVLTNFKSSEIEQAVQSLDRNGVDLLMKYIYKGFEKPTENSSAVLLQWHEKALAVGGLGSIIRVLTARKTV
UniProt Q9BV81: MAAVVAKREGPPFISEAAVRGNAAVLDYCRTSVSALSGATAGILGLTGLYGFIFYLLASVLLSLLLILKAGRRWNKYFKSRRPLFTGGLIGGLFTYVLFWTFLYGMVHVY
UniProt Q99961: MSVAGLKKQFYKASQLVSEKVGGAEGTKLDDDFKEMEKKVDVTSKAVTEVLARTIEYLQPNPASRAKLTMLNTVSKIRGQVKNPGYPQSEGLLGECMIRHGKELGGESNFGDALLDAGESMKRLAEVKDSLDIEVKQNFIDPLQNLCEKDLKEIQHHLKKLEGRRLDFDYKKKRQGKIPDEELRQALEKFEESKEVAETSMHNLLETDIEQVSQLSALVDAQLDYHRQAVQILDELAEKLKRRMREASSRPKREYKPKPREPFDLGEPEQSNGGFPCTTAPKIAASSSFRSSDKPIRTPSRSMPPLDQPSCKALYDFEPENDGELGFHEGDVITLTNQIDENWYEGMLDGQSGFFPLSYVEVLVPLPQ
UniProt Q9BRS2: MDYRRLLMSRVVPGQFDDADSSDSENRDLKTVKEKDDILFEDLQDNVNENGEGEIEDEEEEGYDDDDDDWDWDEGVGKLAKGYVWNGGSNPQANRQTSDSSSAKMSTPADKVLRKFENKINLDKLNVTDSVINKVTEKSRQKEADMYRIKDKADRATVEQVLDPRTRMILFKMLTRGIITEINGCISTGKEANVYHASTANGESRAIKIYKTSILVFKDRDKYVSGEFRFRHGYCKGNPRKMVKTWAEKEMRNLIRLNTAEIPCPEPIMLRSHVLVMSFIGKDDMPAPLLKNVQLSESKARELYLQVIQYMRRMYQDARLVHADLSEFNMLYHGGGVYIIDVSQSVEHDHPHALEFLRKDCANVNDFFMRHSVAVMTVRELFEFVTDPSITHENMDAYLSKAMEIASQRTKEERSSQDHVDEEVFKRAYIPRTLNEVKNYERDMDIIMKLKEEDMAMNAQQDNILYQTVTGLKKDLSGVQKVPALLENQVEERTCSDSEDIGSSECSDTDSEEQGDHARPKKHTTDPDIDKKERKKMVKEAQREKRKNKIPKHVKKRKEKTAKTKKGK
UniProt Q99747: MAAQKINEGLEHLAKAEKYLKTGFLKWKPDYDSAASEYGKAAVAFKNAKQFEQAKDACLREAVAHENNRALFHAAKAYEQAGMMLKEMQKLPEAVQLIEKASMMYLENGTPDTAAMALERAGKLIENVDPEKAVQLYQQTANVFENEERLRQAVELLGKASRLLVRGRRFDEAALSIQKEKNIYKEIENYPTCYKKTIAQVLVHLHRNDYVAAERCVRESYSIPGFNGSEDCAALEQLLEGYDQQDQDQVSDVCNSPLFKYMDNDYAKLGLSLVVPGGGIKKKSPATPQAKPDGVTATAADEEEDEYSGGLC
UniProt Q9BRG1: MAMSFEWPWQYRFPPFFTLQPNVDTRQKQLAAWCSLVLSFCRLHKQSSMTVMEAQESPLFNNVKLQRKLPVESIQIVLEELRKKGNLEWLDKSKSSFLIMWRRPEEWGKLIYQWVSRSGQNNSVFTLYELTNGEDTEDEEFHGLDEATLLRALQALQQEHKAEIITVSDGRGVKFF

± gives the standard deviation of the averaged measurements. The entries are a selection whose mix differs from that of the whole data set.

Compound in the experiment: Nc1ncnc2c1ncn2[C@@H]1O[C@H](COP(=O)(O)OP(=O)(O)OP(=O)(O)O)[C@@H](O)[C@H]1O [adenosine triphosphate]
The experiment in a line: NP40-soluble protein abundance relative to vehicle (solubility fold change) (ratio); higher = more soluble protein in presence of ATP. Conditions: concentration: 10mM. The method in brief: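 In three independent experiments, Jurkat crude lysate made by Dounce homogenisation was treated for 10 min at room temperature and then 3 min at 37 °C with eight concentrations ranging from 0.1 to 10 mM. It was then solubilised with 0.8% NP40 plus benzonase for 60 min at 4 °C and ultracentrifuged. The supernatant was TMT-labelled for LC-MS/MS, and each value is the fold change against the detergent-processed vehicle for the same replicate, using vsn-normalised intensities.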
In the case of UniProt Q9BRP8-2|Q9BRP8, the NP40-soluble protein abundance worked out at 0.912 ± 0.14.

With WDR77 (UniProt Q9BQA1), the NP40-soluble protein abundance turned out to be 1.02 ± 0.049. In the case of UniProt Q99729-3|Q99729, the NP40-soluble protein abundance amounted to 0.942 ± 0.02. For TRIM56 (UniProt Q9BRZ2) the value was 1.37 ± 0.095; for UniProt Q99941 and related entries, 1.05 ± 0.033. As for UniProt Q9BUH6, the NP40-soluble protein abundance turned out to be 1.04 ± 0.06.

On to RBCK1 (UniProt Q9BYM8), for which the NP40-soluble protein abundance was found to be 0.95 ± 0.04.

With UniProt Q9BSR8 and related entries, the NP40-soluble protein abundance is 0.973 ± 0.08.

As to MIPEP (UniProt Q99797), the NP40-soluble protein abundance amounted to 0.987 ± 0.058.

For UniProt Q9BVC4 and related entries, the NP40-soluble protein abundance came out at 1 ± 0.079. As to BACH2 (UniProt Q9BYV9), the NP40-soluble protein abundance was determined as 0.986 ± 0.069.

Take UniProt Q9BUR4: the NP40-soluble protein abundance worked out at 1.26 ± 0.18. The value for UniProt Q9BXW7 and related entries was 0.934 ± 0.022; that for UniProt Q9BQC6 was 0.853 ± 0.15. UniProt Q9BYG3: the NP40-soluble protein abundance came to 1.2 ± 0.098. GRWD1 (UniProt Q9BQ67): the NP40-soluble protein abundance turned out to be 1.14 ± 0.023. For SGPP1 (UniProt Q9BX95) the value was 0.951 ± 0.058; for TCF25 (UniProt Q9BQ70), 1.14 ± 0.068; for UniProt Q99767-2, 0.902 ± 0.063. For UniProt Q9BVJ6 and related entries the value was 1.262 ± 0.0085. For MRPL20 (UniProt Q9BYC9) the value was 0.909 ± 0.18; for TARS2 (UniProt Q9BW92), 1.05 ± 0.048.

In the case of ARPC5L (UniProt Q9BPX5), the NP40-soluble protein abundance is 0.894 ± 0.042. UniProt Q9BV81: the NP40-soluble protein abundance worked out at 0.98 ± 0.069. With SH3GL1 (UniProt Q99961), the NP40-soluble protein abundance came out at 0.94 ± 0.022. The value for RIOK1 (UniProt Q9BRS2) was 1.26 ± 0.089. For NAPG (UniProt Q99747) the value was 0.876 ± 0.036.

As to DDA1 (UniProt Q9BW61), the NP40-soluble protein abundance was determined as 0.911 ± 0.07. With YTHDF1 (UniProt Q9BYJ9), the NP40-soluble protein abundance is 1.06 ± 0.056.

As for GINS4 (UniProt Q9BRT9), the NP40-soluble protein abundance turned out to be 0.9494 ± 0.0073. The value for TSNAX (UniProt Q99598) was 0.908 ± 0.037.

Regarding VPS25 (UniProt Q9BRG1), the NP40-soluble protein abundance is 0.959 ± 0.075. Turning to TRMT61B (UniProt Q9BVS5), the NP40-soluble protein abundance came to 1.05 ± 0.045. The value for MRPL9 (UniProt Q9BYD2) was 0.866 ± 0.15; that for UniProt Q99504 and related entries was 1.03 ± 0.029.
